Source: patent publication US10774047B2 (THE TRUSTEES OF THE UNIVERSITY OF PENNSYLVANIA, priority 2015, dated 2020)
Some entries share one result that the patent states for a list of compounds. At least one structure is not confirmed: it was looked up by name or label, or the drawing left a doubt.

How the values were obtained:
A375P (melanoma) cells = assay: MTT anti-proliferative assay (72 hr) in A375P cells; assay type: cell-based; conditions: FIG. 1C
Description: (A) Schematic of dimeric antimalarials (B) A375P cells were plated in a 384-well highthroughput format and treated with the quinacrine-, mefloquine- and primaquine-based compounds shown (72 hr, 1 nM-30 μM). Viability was standardized to vehicle (water) treated controls and shown are Log IC50 values calculated using GraphPad Prism. Alamar blue. (C) A375P cells were treated with the DQ compound library (72 hr, 1 nM-30 μM) MTT. (D) PANC1 cells were treated identically to (C). (E) PANC1 cells were treated with the DQ compound library as well as Lys05, Spautin and SBI-0206965 (72 hr, 3 μM). Apoptosis was assessed by Annexin-V/flow cytometry.
For MTT assays, cells were plated in 96-well plates (2,000 cells/well), allowed to adhere overnight, and subsequently treated in triplicate for 72 hours. MTT reagent (Roche) was applied, cells were solubilized and absorbance was read at 570 nm, with background subtraction at 690 nm. The clonogenic assay was performed as previously described. Briefly, cells were suspended in appropriate culture media, and plated in 6-well plates (2×10^3 cells/well). Medium was changed and drug treatment refreshed every 3-4 days for 2 weeks. Cells were subsequently stained with crystal violet and quantified. […]

[1] = system: PANC1 (pancreatic cancer) cells; assay: MTT anti-proliferative assay (72 hr) in PANC1 cells; assay type: cell-based; conditions: FIG. 1D

Row | SMILES | IC50 (A375P (melanoma) cells) [µM] | IC50 [1] [µM]
1 | CNC(=O)c1ccccc1Oc1nc(Nc2cc(OC)c(OC)c(OC)c2)ncc1Br [SBI-0206965, reference compound] | > 15 | > 15
2 | Fc1ccc(CNc2ncnc3ccc(F)cc23)cc1 [Spautin-1, reference compound] | > 15 | > 15
